Test results reported in doi:10.1101/2024.05.17.594765.
No constants are given. Whether binding was seen depends on the method and setting. Some results given as binding are weak or reduced against the parent protein; the word gives no strength. Tags and fused reporters may be left off the sequences shown.

Target: T1, C-terminally Halo-tagged four-and-a-half LIM domains 3 (FHL3-Halo) (human), Q13643
T1 chain: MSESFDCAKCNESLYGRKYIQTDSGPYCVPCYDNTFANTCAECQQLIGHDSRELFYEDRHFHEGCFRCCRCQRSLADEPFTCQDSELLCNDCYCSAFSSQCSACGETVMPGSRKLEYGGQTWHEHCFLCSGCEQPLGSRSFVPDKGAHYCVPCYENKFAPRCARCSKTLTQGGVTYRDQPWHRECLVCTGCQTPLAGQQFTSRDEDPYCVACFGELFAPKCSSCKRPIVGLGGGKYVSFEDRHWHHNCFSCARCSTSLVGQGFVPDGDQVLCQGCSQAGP
Test: TIRF microscopy, force reconstitution assay with purified proteins; myosin Va and myosin VI (or either alone) immobilised on a PEG-coated coverslip, fluorescent F-actin added, then 250 nM Halo-tagged LIM protein in MBOS (20 mM MOPS pH 7.4, 5 mM MgCl2, 0.1 mM EGTA, 50 mM KCl) + 1 mM ATP; room temperature; myosin force generation; both purified
Settings: remark: other sources report otherwise

binding: binds
B1: C-terminally Halo-tagged four-and-a-half LIM domains 3 (FHL3-Halo), Q13643 1-280 (protein)
chain: MSESFDCAKCNESLYGRKYIQTDSGPYCVPCYDNTFANTCAECQQLIGHDSRELFYEDRHFHEGCFRCCRCQRSLADEPFTCQDSELLCNDCYCSAFSSQCSACGETVMPGSRKLEYGGQTWHEHCFLCSGCEQPLGSRSFVPDKGAHYCVPCYENKFAPRCARCSKTLTQGGVTYRDQPWHRECLVCTGCQTPLAGQQFTSRDEDPYCVACFGELFAPKCSSCKRPIVGLGGGKYVSFEDRHWHHNCFSCARCSTSLVGQGFVPDGDQVLCQGCSQAGP
modifications: here or on the partner: Janelia Fluor 646 Halo-ligand conjugated to the Halo tag; Janelia Fluor 646 Halo-ligand conjugated to the Halo tag
